In the supplement of paper PMC10849652:
The list shows a part of the results.

Amino acid sequences for entries named in this document (tags omitted). A change or cut given only in a name is not applied to a line headed by its entry.
UniProt P35914: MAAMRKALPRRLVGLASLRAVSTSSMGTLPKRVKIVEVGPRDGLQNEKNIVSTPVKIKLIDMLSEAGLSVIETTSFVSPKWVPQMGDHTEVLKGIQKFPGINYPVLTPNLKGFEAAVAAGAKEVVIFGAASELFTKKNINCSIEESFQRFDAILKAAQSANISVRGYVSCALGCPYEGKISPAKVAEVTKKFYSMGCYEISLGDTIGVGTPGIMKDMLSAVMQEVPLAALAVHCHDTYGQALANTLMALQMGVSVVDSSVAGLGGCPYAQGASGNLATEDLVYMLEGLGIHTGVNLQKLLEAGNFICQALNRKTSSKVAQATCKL
UniProt Q9BUP3: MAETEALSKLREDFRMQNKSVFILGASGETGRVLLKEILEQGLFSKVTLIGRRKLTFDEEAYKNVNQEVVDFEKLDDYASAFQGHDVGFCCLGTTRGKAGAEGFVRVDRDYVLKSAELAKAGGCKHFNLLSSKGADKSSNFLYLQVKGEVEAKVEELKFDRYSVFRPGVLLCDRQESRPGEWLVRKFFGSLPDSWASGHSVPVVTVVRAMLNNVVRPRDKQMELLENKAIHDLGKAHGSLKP
UniProt Q9NP66: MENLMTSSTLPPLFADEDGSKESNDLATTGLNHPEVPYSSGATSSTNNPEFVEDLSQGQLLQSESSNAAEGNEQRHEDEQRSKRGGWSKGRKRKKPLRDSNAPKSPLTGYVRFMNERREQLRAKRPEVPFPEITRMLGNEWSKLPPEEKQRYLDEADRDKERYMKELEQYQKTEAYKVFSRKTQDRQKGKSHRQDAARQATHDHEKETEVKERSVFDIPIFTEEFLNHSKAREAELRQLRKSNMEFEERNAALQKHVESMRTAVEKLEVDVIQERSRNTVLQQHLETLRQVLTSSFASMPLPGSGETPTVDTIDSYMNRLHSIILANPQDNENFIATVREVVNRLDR
UniProt Q7LGA3: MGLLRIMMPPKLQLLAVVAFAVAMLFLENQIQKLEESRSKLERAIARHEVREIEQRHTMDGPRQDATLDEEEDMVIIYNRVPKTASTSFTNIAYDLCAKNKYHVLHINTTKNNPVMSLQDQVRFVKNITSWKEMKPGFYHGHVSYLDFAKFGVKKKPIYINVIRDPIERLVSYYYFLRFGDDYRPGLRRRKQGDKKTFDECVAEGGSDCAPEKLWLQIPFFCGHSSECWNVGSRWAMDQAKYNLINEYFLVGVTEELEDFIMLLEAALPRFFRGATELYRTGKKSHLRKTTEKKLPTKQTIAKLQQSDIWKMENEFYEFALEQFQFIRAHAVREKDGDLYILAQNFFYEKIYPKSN
UniProt Q8TCT9: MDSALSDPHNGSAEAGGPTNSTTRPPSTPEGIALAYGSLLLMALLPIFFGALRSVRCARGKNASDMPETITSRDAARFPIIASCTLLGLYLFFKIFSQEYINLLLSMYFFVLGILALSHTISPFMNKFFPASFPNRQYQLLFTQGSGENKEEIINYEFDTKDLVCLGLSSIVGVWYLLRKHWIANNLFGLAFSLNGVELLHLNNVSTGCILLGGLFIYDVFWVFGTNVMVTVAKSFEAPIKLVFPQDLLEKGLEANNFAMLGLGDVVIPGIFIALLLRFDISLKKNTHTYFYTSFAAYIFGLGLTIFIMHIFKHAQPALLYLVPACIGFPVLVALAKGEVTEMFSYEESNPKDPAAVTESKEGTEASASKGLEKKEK
UniProt P08397: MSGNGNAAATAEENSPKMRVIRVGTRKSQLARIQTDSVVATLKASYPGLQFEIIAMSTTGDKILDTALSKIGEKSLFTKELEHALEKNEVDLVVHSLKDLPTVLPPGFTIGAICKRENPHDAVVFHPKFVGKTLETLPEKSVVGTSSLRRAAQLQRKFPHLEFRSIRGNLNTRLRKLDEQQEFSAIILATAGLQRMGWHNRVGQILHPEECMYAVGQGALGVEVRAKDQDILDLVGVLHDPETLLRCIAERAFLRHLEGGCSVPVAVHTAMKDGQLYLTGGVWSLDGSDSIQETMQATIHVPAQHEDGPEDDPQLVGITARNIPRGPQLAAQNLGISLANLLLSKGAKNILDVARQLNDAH
UniProt P31943: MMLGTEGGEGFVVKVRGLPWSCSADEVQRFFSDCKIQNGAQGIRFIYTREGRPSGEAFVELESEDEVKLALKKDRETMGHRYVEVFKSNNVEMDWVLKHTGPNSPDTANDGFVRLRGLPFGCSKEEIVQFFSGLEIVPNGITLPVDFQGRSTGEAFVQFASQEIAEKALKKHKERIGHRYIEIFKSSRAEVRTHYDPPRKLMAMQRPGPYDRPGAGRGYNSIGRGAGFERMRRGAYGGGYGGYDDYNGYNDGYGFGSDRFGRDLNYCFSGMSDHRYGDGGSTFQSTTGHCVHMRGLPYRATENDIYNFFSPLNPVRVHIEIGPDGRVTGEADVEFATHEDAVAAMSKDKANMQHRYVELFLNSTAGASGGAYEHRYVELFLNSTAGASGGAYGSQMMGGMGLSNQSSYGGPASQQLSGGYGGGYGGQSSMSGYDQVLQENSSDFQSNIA
UniProt P55795: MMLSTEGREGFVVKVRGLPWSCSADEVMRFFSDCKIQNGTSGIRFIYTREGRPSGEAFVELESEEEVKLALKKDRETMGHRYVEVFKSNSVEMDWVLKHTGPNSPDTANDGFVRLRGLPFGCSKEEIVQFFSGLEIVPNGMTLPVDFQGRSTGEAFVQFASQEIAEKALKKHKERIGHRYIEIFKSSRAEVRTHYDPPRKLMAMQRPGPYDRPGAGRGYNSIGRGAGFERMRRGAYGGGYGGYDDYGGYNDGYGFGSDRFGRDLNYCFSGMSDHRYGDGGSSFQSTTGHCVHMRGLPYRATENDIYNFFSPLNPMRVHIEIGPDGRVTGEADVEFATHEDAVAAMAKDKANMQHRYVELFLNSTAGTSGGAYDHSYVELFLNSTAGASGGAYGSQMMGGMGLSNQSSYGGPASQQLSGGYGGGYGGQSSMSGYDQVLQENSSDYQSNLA
UniProt P08238, whole entry, looked up: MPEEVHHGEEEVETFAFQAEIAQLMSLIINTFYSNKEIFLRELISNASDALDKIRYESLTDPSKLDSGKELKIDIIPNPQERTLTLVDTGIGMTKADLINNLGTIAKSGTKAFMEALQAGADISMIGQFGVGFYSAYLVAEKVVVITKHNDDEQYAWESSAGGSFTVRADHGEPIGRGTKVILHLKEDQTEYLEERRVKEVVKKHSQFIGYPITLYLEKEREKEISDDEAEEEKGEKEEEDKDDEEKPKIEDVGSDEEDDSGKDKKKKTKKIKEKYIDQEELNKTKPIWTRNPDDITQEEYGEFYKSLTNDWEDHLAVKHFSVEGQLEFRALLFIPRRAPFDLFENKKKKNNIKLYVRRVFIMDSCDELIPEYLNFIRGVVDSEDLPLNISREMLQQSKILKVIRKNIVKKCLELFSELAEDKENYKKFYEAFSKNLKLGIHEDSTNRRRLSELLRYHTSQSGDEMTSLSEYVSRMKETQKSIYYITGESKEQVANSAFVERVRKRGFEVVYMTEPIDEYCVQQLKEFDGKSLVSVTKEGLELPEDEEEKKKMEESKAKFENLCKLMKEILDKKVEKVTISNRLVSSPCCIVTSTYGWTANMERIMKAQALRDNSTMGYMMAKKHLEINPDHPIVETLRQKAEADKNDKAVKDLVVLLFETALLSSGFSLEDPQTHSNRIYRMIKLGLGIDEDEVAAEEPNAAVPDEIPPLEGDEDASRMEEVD
UniProt Q1KMD3: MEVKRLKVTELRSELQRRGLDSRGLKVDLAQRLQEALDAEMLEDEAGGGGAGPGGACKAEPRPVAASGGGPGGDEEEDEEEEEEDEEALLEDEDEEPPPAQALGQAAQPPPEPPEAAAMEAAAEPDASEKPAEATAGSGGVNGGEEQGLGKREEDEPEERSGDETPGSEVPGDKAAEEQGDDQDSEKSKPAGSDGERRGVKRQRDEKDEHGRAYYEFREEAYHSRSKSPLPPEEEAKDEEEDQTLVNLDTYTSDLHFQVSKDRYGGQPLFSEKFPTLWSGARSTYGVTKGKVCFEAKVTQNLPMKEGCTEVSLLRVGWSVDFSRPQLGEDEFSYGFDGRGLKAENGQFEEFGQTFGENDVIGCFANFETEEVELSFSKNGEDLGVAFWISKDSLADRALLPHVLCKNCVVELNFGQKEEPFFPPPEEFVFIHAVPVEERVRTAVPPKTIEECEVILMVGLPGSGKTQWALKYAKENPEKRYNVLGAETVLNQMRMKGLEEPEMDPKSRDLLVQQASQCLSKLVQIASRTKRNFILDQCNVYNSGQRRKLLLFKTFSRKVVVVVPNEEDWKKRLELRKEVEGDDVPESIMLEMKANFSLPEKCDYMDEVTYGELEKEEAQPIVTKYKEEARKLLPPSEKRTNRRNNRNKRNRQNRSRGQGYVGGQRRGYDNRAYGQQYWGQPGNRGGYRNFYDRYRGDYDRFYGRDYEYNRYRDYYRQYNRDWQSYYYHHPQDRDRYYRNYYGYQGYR
UniProt P11021: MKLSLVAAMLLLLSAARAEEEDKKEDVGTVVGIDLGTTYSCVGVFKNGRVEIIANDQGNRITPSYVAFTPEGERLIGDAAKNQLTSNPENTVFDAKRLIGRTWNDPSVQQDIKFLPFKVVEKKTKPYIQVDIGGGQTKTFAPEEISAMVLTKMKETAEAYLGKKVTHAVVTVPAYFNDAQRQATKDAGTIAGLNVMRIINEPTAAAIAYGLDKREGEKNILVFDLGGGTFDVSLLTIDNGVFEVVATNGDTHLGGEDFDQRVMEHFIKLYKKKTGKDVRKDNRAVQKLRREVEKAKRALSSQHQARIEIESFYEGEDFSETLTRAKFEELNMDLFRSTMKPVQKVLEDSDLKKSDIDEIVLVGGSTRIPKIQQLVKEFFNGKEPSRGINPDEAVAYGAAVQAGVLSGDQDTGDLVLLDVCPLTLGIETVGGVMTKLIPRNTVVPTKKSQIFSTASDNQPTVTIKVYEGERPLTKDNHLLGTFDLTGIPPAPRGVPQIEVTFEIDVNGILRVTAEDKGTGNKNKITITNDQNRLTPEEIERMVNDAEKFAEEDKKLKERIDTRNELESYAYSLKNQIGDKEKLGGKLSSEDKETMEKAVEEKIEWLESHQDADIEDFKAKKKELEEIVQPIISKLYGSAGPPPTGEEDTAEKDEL
UniProt P05114: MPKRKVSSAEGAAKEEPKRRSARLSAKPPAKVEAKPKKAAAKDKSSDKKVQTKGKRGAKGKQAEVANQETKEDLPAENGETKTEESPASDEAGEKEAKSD
UniProt Q86YM7: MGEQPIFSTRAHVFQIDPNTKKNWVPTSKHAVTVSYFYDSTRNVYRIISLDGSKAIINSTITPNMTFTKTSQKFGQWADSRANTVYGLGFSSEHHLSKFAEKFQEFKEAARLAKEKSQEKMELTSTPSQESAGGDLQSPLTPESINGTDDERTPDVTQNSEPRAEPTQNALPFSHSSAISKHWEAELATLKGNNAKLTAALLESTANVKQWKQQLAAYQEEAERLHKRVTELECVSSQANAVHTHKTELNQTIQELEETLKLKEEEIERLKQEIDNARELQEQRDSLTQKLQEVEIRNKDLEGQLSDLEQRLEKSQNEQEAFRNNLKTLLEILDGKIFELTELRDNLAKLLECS
UniProt P09429: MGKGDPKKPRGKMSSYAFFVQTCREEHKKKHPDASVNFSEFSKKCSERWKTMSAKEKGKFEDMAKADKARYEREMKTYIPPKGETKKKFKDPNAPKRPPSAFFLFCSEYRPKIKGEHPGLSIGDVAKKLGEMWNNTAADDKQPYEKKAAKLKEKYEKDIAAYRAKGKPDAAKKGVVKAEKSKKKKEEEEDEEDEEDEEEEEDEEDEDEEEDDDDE
UniProt Q14773: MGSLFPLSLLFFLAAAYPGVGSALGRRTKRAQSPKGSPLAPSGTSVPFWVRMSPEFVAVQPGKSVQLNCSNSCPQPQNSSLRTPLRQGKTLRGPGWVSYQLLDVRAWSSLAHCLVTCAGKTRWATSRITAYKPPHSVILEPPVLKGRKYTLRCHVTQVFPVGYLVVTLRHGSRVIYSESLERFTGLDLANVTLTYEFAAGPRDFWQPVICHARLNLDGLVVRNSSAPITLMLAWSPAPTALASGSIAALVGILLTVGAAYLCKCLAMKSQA

Assays:
Experiment in all cases: log2 fold change, soluble protein after heating vs DMSO (PISA); higher = thermal stabilisation; K562 cells, 10 uM, 30 min; active = over 0.2 and 3.5 SD of the protein, either way, in both replicates (recomputed)
[1] = compound: COC1=CC=C(C=C1)CN2C=CC3=C2C=C(C=C3)C(=O)NO
Summary of the method: (§1)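 K562 cells at 2×10^6 cells/mL were given 10 μM compound for 30 min. Aliquots then went through 3 min of heating across 48°C-58°C, were pooled, and were extracted in PBS with 0.5% NP-40 at 4°C, and the supernatant after 21,000xg for 90 min was quantified by TMTpro 16plex LC-MS/MS with channel sums equalised. Thermal stability relative to control samples, from duplicates, is given as log2 fold change.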

filanesib = compound: CON(C)C(=O)N1N=C(c2cc(F)ccc2F)S[C@@]1(CCCN)c1ccccc1 [filanesib]
Summary of the method: as §1

zotarolimus = compound: CO[C@H]1C[C@@H]2CC[C@@H](C)[C@@](O)(O2)C(=O)C(=O)N2CCCC[C@H]2C(=O)O[C@H]([C@H](C)C[C@@H]2CC[C@H](n3cnnn3)[C@H](OC)C2)CC(=O)[C@H](C)/C=C(\C)[C@@H](O)[C@@H](OC)C(=O)[C@H](C)C[C@H](C)/C=C/C=C/C=C/1C [zotarolimus]
Summary of the method: as §1

idasanutlin = compound: COc1cc(C(=O)O)ccc1NC(=O)[C@@H]1N[C@@H](CC(C)(C)C)[C@](C#N)(c2ccc(Cl)cc2F)[C@H]1c1cccc(Cl)c1F [idasanutlin]
Summary of the method: as §1

alisertib = compound: COc1cc(Nc2ncc3c(n2)-c2ccc(Cl)cc2C(c2c(F)cccc2OC)=NC3)ccc1C(=O)O [alisertib]
Summary of the method: as §1

[2] = compound: COc1cc2nc(-c3cc(F)ccc3O)nc(N[C@@H]3CNC[C@H]3C(C)(C)O)c2cc1OC
Summary of the method: as §1

gefitinib = compound: COc1cc2ncnc(Nc3ccc(F)c(Cl)c3)c2cc1OCCCN1CCOCC1 [gefitinib]
Summary of the method: as §1

[3] = compound: COc1cccc2cc(-c3nc([C@H]4CC[C@H](C(=O)O)CC4)n4ncnc(N)c34)[nH]c12
Summary of the method: as §1

lapatinib = compound: CS(=O)(=O)CCNCc1ccc(-c2ccc3ncnc(Nc4ccc(OCc5cccc(F)c5)c(Cl)c4)c3c2)o1 [lapatinib]
Summary of the method: as §1

pictilisib = compound: CS(=O)(=O)N1CCN(Cc2cc3nc(-c4cccc5[nH]ncc45)nc(N4CCOCC4)c3s2)CC1 [pictilisib]
Summary of the method: as §1

[4] = compound: CS(=O)(=O)c1ccc(-c2cnc(N)c(C(=O)Nc3ccccc3)n2)cc1
Summary of the method: as §1

crizotinib = compound: C[C@@H](Oc1cc(-c2cnn(C3CCNCC3)c2)cnc1N)c1c(Cl)ccc(F)c1Cl [crizotinib]
Summary of the method: as §1

[5] = compound: C[C@@H]1COCCN1C2=NC(=NC(=C2)C3(CC3)S(=O)(=O)C)C4=C5C=CNC5=CC=C4
Summary of the method: as §1

[6] = compound: C[C@H](C1=CC=C(C=C1)C(=O)NC2=C3C=CNC3=NC=C2)N
Summary of the method: as §1

duvelisib = compound: C[C@H](Nc1ncnc2nc[nH]c12)c1cc2cccc(Cl)c2c(=O)n1-c1ccccc1 [duvelisib]
Summary of the method: as §1

gandotinib = compound: Cc1cc(Nc2cc(CN3CCOCC3)c3nc(C)c(Cc4ccc(Cl)cc4F)n3n2)n[nH]1 [gandotinib]
Summary of the method: as §1

tozasertib = compound: Cc1cc(Nc2cc(N3CCN(C)CC3)nc(Sc3ccc(NC(=O)C4CC4)cc3)n2)n[nH]1 [tozasertib]
Summary of the method: as §1

[7] = compound: Cc1cc(SCc2sc(-c3ccc(C(F)(F)F)cc3)nc2C)ccc1OCC(=O)O
Summary of the method: as §1

doramapimod = compound: Cc1ccc(-n2nc(C(C)(C)C)cc2NC(=O)Nc2ccc(OCCN3CCOCC3)c3ccccc23)cc1 [doramapimod]
Summary of the method: as §1

ispinesib = compound: Cc1ccc(C(=O)N(CCCN)[C@@H](c2nc3cc(Cl)ccc3c(=O)n2Cc2ccccc2)C(C)C)cc1 [ispinesib]
Summary of the method: as §1

Measured: log2 fold change

HMGCL (UniProt P35914)
inactive: [1] -0.066 | filanesib -0.064 | zotarolimus 0.031 | idasanutlin -0.024 | alisertib -0.168 | [2] 0.006 | gefitinib -0.013 | [3] 0.031 | lapatinib -0.014 | pictilisib 0.01 | [4] 0.038 | crizotinib 0.033 | [5] 0.013 | [6] -0.066 | duvelisib -0.005 | gandotinib -0.084 | tozasertib -0.032 | [7] 0.033 | doramapimod 0.005 | ispinesib 0.022

HRAS (UniProt P01112)
inactive: [1] 0.008 | filanesib -0.023 | zotarolimus -0.049 | idasanutlin 0.075 | alisertib -0.157 | [2] -0.044 | gefitinib 0.021 | [3] -0.015 | lapatinib 0.076 | pictilisib 0.012 | [4] -0.064 | crizotinib 0.18 | [5] -0.129 | [6] -0.057 | gandotinib 0.068 | [7] -0.077 | doramapimod -0.032 | ispinesib 0.22

HTATIP2 isoform 3 (UniProt Q9BUP3)
active: zotarolimus 0.364 | duvelisib 0.294
inactive: [1] -0.003 | filanesib -0.091 | idasanutlin -0.031 | alisertib -0.029 | [2] -0.131 | gefitinib 0.066 | [3] 0.054 | lapatinib -0.015 | pictilisib 0.137 | [4] 0.014 | crizotinib -0.106 | [5] 0.023 | [6] -0.145 | gandotinib 0.003 | [7] 0.027 | doramapimod 0.003 | ispinesib -0.111

HMG20A (UniProt Q9NP66)
inactive: [1] -0.045 | filanesib 0.05 | zotarolimus 0.078 | idasanutlin -0.21 | alisertib -0.016 | [2] 0.147 | gefitinib 0.065 | [3] -0.021 | lapatinib -0.088 | pictilisib 0.145 | [4] -0.042 | crizotinib 0.07 | [5] -0.018 | [6] -0.199 | gandotinib 0.104 | [7] -0.087 | doramapimod 0.071 | ispinesib 0.352

HS2ST1 (UniProt Q7LGA3)
inactive: [1] -0.122 | filanesib 0.066 | zotarolimus -0.017 | idasanutlin -0.041 | alisertib -0.081 | [2] 0.035 | gefitinib -0.027 | [3] 0.041 | lapatinib -0.014 | pictilisib 0.029 | [4] 0.009 | crizotinib 0.056 | [5] -0.045 | [6] 0.011 | duvelisib -0.045 | gandotinib 0.144 | tozasertib -0.01 | [7] -0.106 | doramapimod -0.028 | ispinesib -0.021

HM13 (UniProt Q8TCT9)
inactive: [1] -0.082 | filanesib -0.075 | zotarolimus 0.076 | idasanutlin -0.158 | alisertib 0.019 | [2] 0.044 | gefitinib 0.123 | [3] 0.104 | lapatinib 0.069 | pictilisib 0.051 | [4] -0.01 | crizotinib -0.035 | [5] 0.115 | [6] -0.055 | gandotinib -0.143 | tozasertib 0.017 | doramapimod 0.002 | ispinesib 0.06

HMBS (UniProt P08397)
inactive: [1] 0.088 | filanesib -0.045 | zotarolimus -0.004 | idasanutlin -0.013 | alisertib -0.087 | [2] 0.007 | gefitinib -0.016 | [3] 0.057 | lapatinib -0.016 | pictilisib 0.001 | [4] -0.01 | crizotinib 0.039 | [5] -0.029 | [6] -0.068 | duvelisib -0.01 | gandotinib 0.028 | tozasertib -0.024 | [7] -0.018 | doramapimod -0.026 | ispinesib 0.06

HPCAL1 (UniProt P37235)
inactive: [1] -0.085 | filanesib -0.128 | zotarolimus -0.017 | idasanutlin -0.062 | alisertib 0.002 | [2] -0.012 | gefitinib -0.021 | [3] 0.06 | lapatinib -0.027 | pictilisib 0.013 | [4] 0.015 | crizotinib 0.011 | [5] 0.08 | [6] -0.047 | gandotinib -0.033 | [7] -0.014 | doramapimod -0.027 | ispinesib -0.054

HNRNPH1 (UniProt P31943)
inactive: [1] 0.069 | filanesib 0 | zotarolimus 0.091 | idasanutlin 0.048 | alisertib 0.028 | [2] -0.192 | gefitinib -0.015 | [3] 0.068 | lapatinib 0.046 | pictilisib -0.135 | [4] 0.027 | crizotinib -0.171 | [5] -0.012 | [6] 0.02 | gandotinib -0.017 | [7] 0.126 | doramapimod -0.012 | ispinesib -0.068

HNRNPH2 (UniProt P55795)
inactive: [1] 0.003 | filanesib 0.033 | zotarolimus 0.079 | idasanutlin 0.001 | alisertib 0.058 | [2] -0.231 | gefitinib 0.02 | [3] -0.079 | lapatinib 0.057 | pictilisib -0.021 | [4] 0.029 | crizotinib -0.171 | [5] 0.096 | [6] -0.023 | gandotinib 0.06 | [7] 0.177 | doramapimod -0.024 | ispinesib -0.159

HSP90AB1 (UniProt P08238)
inactive: [1] 0.046 | filanesib -0.096 | zotarolimus 0.052 | idasanutlin -0.028 | alisertib -0.042 | [2] -0.039 | gefitinib -0.006 | [3] -0.012 | lapatinib -0.001 | pictilisib -0.035 | [4] 0.029 | crizotinib -0.012 | [5] 0.014 | [6] -0.038 | duvelisib 0.011 | gandotinib -0.08 | tozasertib 0.017 | [7] 0.044 | doramapimod -0.048 | ispinesib 0.019

HNRNPUL2 (UniProt Q1KMD3)
inactive: [1] -0.012 | filanesib 0.156 | zotarolimus -0.015 | idasanutlin 0.083 | alisertib -0.026 | [2] 0.105 | gefitinib -0.02 | [3] 0.005 | lapatinib -0.018 | pictilisib 0.035 | [4] -0.092 | crizotinib -0.033 | [5] -0.05 | [6] 0.123 | gandotinib -0.005 | [7] 0.015 | doramapimod 0.041 | ispinesib 0.004

HSPA5 (UniProt P11021)
inactive: [1] -0.085 | filanesib -0.038 | zotarolimus -0.007 | idasanutlin 0.013 | alisertib -0.059 | [2] -0.022 | gefitinib 0.042 | [3] 0.006 | lapatinib -0.003 | pictilisib -0.035 | [4] -0.005 | crizotinib 0.011 | [5] -0.007 | [6] -0.028 | duvelisib -0.024 | gandotinib -0.043 | tozasertib -0.003 | [7] -0.017 | doramapimod 0.001 | ispinesib 0.012

Reprinted at random: two entries already listed, in no set order.
HNRNPUL2 (UniProt Q1KMD3)
inactive: [1] -0.012 | filanesib 0.156 | zotarolimus -0.015 | idasanutlin 0.083 | alisertib -0.026 | [2] 0.105 | gefitinib -0.02 | [3] 0.005 | lapatinib -0.018 | pictilisib 0.035 | [4] -0.092 | crizotinib -0.033 | [5] -0.05 | [6] 0.123 | gandotinib -0.005 | [7] 0.015 | doramapimod 0.041 | ispinesib 0.004

HSP90AB1 (UniProt P08238)
inactive: [1] 0.046 | filanesib -0.096 | zotarolimus 0.052 | idasanutlin -0.028 | alisertib -0.042 | [2] -0.039 | gefitinib -0.006 | [3] -0.012 | lapatinib -0.001 | pictilisib -0.035 | [4] 0.029 | crizotinib -0.012 | [5] 0.014 | [6] -0.038 | duvelisib 0.011 | gandotinib -0.08 | tozasertib 0.017 | [7] 0.044 | doramapimod -0.048 | ispinesib 0.019

Next part.

HMGN1 (UniProt P05114)
inactive: [1] 0.01 | filanesib 0.044 | zotarolimus -0.034 | idasanutlin 0.026 | alisertib -0.04 | [2] 0.059 | gefitinib -0.07 | [3] 0.026 | lapatinib -0.09 | pictilisib -0.003 | [4] -0.067 | crizotinib 0.055 | [5] -0.034 | [6] 0.058 | gandotinib 0.094 | [7] -0.027 | doramapimod 0.013 | ispinesib -0.042

HOMER1 (UniProt Q86YM7)
inactive: [1] 0.168 | filanesib 0.051 | zotarolimus 0.043 | idasanutlin 0.011 | alisertib -0.083 | [2] -0.023 | gefitinib 0.086 | [3] -0.042 | lapatinib 0.073 | pictilisib -0.001 | [4] -0.011 | crizotinib -0.015 | [5] 0.071 | [6] -0.014 | gandotinib -0.068 | [7] -0.002 | doramapimod 0.027 | ispinesib 0.083

HMGB1 (UniProt P09429)
inactive: [1] 0.011 | filanesib -0.044 | zotarolimus 0.032 | idasanutlin 0.074 | alisertib -0.046 | [2] -0.038 | gefitinib -0.007 | [3] 0.003 | lapatinib 0.002 | pictilisib -0.066 | [4] -0.016 | crizotinib -0.106 | [5] -0.092 | [6] -0.042 | duvelisib -0.003 | gandotinib -0.05 | tozasertib -0.052 | [7] 0.006 | doramapimod 0.006 | ispinesib 0.011

ICAM4 (UniProt Q14773)
inactive: [1] -0.078 | filanesib 0.02 | zotarolimus 0.018 | idasanutlin -0.011 | alisertib -0.112 | [2] -0.044 | gefitinib 0.004 | [3] 0.013 | lapatinib 0.044 | pictilisib 0.146 | [4] -0.009 | crizotinib 0.024 | [5] -0.053 | [6] 0.033 | duvelisib 0.085 | gandotinib -0.049 | tozasertib 0.036 | [7] 0.032 | doramapimod 0.074 | ispinesib -0.042
